Results on one molecule are retold here after patent US20240209113A1.

Assay [1] deals with human CD137 ECD-mIgG2a (human). The assay is described as follows: competition ELISA on coated human CD137 ECD-mIgG2a; bound antibody detected with anti-human IgG; competitor human CD137 ligand ECD-mIgG2a. Background: An ELISA detects its analyte on a solid surface through an enzyme-linked reagent.
The target in assay [2] is human CD137 ECD-mIgG2a (human). The assay is described as follows: ELISA on coated human CD137 ECD-mIgG2a, anti-human IgG-HRP; antibody concentration not given.

These are yes or no findings as the source states them, for the method shown. Some binding calls cover weakened binding; strength is not graded here. Tags and fused reporters may be left off the sequences shown.

B1: BGA-5623 human IgG4 Fc fusion (Fc fusion)
chain: EVQLLESGGGLVQPGGSLRLSCAASGFTVSAEDVGWVRQAPGKGLEWVSAILDKGGSTYYAESVKGRFTISRDNAKNTLYLQMSSLRAEDTAVYYCARIVYHAGGGVTFDTRGQGTQVTVSSESKYGPPCPPCPAPEFLGGPSVFLFPPKPKDTLMISRTPEVTCVVVDVSQEDPEVQFNWYVDGVEVHNAKTKPREEQFNSTYRWSVLTVLHQDWLNGKEYKCKVSNKGLPSSIEKTISKAKGQPREPQVYTLPPSQEEMTKNQVSLTCLVKGFYPSDIAVEWESNGQPENNYKTTPPVLDSDGSFFLYSRLTVDKSRWQEGNVFSCSVMHEALHNHYTQKSLSLSLGK
With B1, the binding entry in assay [1] and in assay [2] was “binds” each time.
